According to PubChem BioAssay AID504467 (National Center for Advancing Translational Sciences (NCATS), 2011):
The campaign covered roughly 330,000 compounds. About 7,700 (2.3%) were called active. This list was built around the results that the source calls inconclusive (neither active nor inactive); the mix of calls is not that of the screen. Calls follow the shape of the dose curve; as a rule, active = well fitted inhibition curve with a large enough effect; inconclusive = small, poorly fitted or top-dose-only effect, or effect the other way; inactive = flat fitted curve, though single readings scatter. A potency beside an inconclusive call is a rough fit, not a confirmed value.
% is scaled to controls: 0 for no effect and ±100 for the full control effect; potency is read from the fitted curve at half-maximal effect.

Assay: qHTS screen for small molecules that inhibit ELG1-dependent DNA repair in human embryonic kidney (HEK293T) cells expressing luciferase-tagged ELG1; also: nearly all actives have a fitted effect of over 55% in size
Conditions: HEK293T ELG1-luciferase reporter, luminescence, 16 h, DNA damage induced by 5-fluorouridine; activity change, negative = inhibition: at 46.1 µM (top of the series)
Method in brief: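 Overnight (16 hr) co-exposure of 2,000 cells/well to 5-fluorouridine and compound at 37 °C preceded detection. Luciferase was quantified via ONE-Glo luminescence; loss of signal denotes inhibition.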
For Cn1c(Oc2ccc(Cl)cc2)c(C=O)c2ccccc21, the Potency was active: 11.6 µM. In the case of CC(=O)Nc1cccc(C(=O)OCc2csc(CC(=O)Nc3ccccc3C)n2)c1, the “activity change, negative = inhibition” value is reported as inactive: -19.3%. With COc1ccccc1-c1nnc(SCC(=O)Nc2nc(-c3ccccc3)cs2)n1C the Potency was inconclusive: 35.5 µM [inhibitor, single point]. For CCc1cccc(N(C(=O)c2csnn2)C(C(=O)NC2CCCC2)c2cccnc2)c1 (stereo not drawn), the “activity change, negative = inhibition” value was inactive: 0.241%. With CC1CCN(CCCNC(=O)CN2C(=O)CSc3ccc(S(=O)(=O)N4CCOCC4)cc32)CC1 the “activity change, negative = inhibition” value was inactive: 0%. In the case of COc1ccc(C(=O)Oc2ccc(C(=S)N3CCOCC3)cc2)cc1, the “activity change, negative = inhibition” value is reported as inactive: -2.96%. For COCc1cc(C)nc2sc(C(=O)NC3CCCCC3)c(N)c12, the Potency was inconclusive: 29.1 µM [activator, single point]. In the case of C[C@H](NC(=O)Cc1ccccc1)C(=O)N1CCC2(CC1)NCCc1[nH]cnc12, the Potency is reported as inconclusive: 9.2 µM [activator, partial curve, poor fit]. In the case of CCC(C(=O)O)n1cnc2scc(-c3ccc(C)c(C)c3)c2c1=O (stereo not drawn), the “activity change, negative = inhibition” value is reported as inactive: 0.132%. For O=C(Cn1cnc2c(nnn2Cc2ccc(Cl)cc2)c1=O)c1ccccc1, the Potency was inconclusive: 20.6 µM [activator, partial curve, poor fit]. For Cc1cc(Nc2ccc(Cl)cc2)n(-c2cccc(Cl)c2)n1, the “activity change, negative = inhibition” value was inactive: 2.15%. In the case of Cc1ccc(-c2cc(C(=O)n3cnc4ccccc43)c3ccccc3n2)cc1C, the Potency is reported as inconclusive: 18.4 µM [activator, partial curve]. In the case of COc1ccc(-c2nn(-c3ccccc3)cc2C(=O)OCC(=O)c2ccc(C)c([N+](=O)[O-])c2)cc1, the “activity change, negative = inhibition” value is reported as inactive: -28.1%. In the case of COc1cccc(/C=C2\SC(=S)N(CC3CCCO3)C2=O)c1 (stereo not drawn), the Potency is reported as inconclusive: 16.4 µM [activator, single point]. In the case of CC[n+]1c(C)sc2cc(OC)ccc21, the “activity change, negative = inhibition” value is reported as inactive: 11.3%. With COc1cc(C)ccc1OCCCON1C(=O)CCC1=O the Potency was inconclusive: 20.6 µM [activator, partial curve, poor fit]. With CCN(CC)S(=O)(=O)c1ccc(Cl)c(NC(=O)COc2ccc(OC)cc2)c1 the “activity change, negative = inhibition” value was inactive: 7.08%. In the case of O=C(CNC(=O)c1ccccc1F)OC1CCOC1=O (stereo not drawn), the “activity change, negative = inhibition” value is reported as inactive: 28.2%. With Cc1c(Cl)c([N+](=O)[O-])nn1CC(=O)NC(C)C1CC2CCC1C2 (stereo not drawn) the “activity change, negative = inhibition” value was inactive: 0.829%. For CCOc1ccccc1N1CCN(C(=O)COc2ccc3c(C)cc(=O)oc3c2)CC1, the Potency was inconclusive: 23.1 µM [inhibitor, single point]. For Cc1cccc(N2CCN(C(=S)Nc3ccc4nc(N5CCN(C)CC5)cc(C)c4c3)CC2)c1C, the “activity change, negative = inhibition” value was inactive: 13.7%. In the case of COc1cc2ccc(=O)oc2c(CC=C(C)C)c1OC, the “activity change, negative = inhibition” value is reported as inactive: -8.16%. With COc1ccc(-c2cc(=O)c3ccccc3s2)cc1 the Potency was inconclusive: 1.84 µM [activator, full curve]. In the case of CCCCn1nnc(NC(=O)c2ccc(-c3ccccc3)cc2)n1, the Potency is reported as inconclusive: 11.6 µM [activator, partial curve]. For C[C@@H]1CN([C@H](C)CO)C(=O)c2cc(NC(=O)Nc3ccc(F)cc3)ccc2O[C@H]1CN(C)C(=O)Nc1ccc(C(F)(F)F)cc1, the Potency was inconclusive: 18.3 µM [inhibitor, single point]. In the case of COc1ccc(-n2ncc3c(=O)n(CC(=O)N4c5ccccc5CC4C)cnc32)cc1 (stereo not drawn), the Potency is reported as inconclusive: 16.4 µM [inhibitor, single point]. For Cc1cccc(OCC(=O)O/N=C(\N)c2ccccn2)c1C, the Potency was inconclusive: 14.6 µM [activator, partial curve]. For CCOC(=O)c1c(C)nc2sc(C(N)=O)c(N)c2c1-c1ccc(OC)cc1, the Potency was active: 13 µM. In the case of O=C(Nc1nccs1)c1ccc(-c2ccccc2Cl)o1, the Potency is reported as inconclusive: 2.31 µM [activator, full curve]. With CCOC(=O)Cc1ccc2sc(-c3ccccc3)nc2c1 the Potency was inconclusive: 4.61 µM [activator, full curve]. In the case of N#C/C(=C\c1c(N2CCC(C(N)=O)CC2)nc2ccccn2c1=O)S(=O)(=O)c1ccc(Cl)cc1, the “activity change, negative = inhibition” value is reported as inactive: -4.98%. For CN(C1CCCCC1)S(=O)(=O)c1cccc(C#N)c1, the “activity change, negative = inhibition” value was inactive: 6.95%. In the case of CC1(C)CC(=O)C2=C(C1)N(CCN1CCOCC1)C1=C(C(=O)CC(C)(C)C1)C2c1cccc(F)c1, the “activity change, negative = inhibition” value is reported as inactive: -10.4%. In the case of CCOC(=O)c1ccc(-c2ccc(C3Nc4ccccc4C(=O)N3O)o2)cc1 (stereo not drawn), the Potency is reported as inconclusive: 18.4 µM [activator, single point]. In the case of Cc1ccc(/C=N/NC(=O)c2ccc3nc[nH]c3c2)s1, the Potency is reported as inconclusive: 29.1 µM [activator, single point]. In the case of O=S(=O)(c1ccc2c(c1)OCCO2)N1C[C@@H]2C[C@H]1CN2S(=O)(=O)c1c(F)cccc1F, the “activity change, negative = inhibition” value is reported as inactive: 4.51%. For COc1ccc2oc(C(=O)Nc3nnc(C)s3)c(C)c2c1, the Potency was inconclusive: 2.06 µM [activator, full curve]. For Cc1ccc(NC(=O)COCC(=O)Nc2ccc(C)cc2)cc1, the “activity change, negative = inhibition” value was inactive: -7.49%.
